Earlier results in US20030113815A1, “Canine peroxisome proliferator activated receptor gamma” (Pfizer Inc., priority 2001, published 2003).
For at least one compound, name, drawing or mass did not settle the structure.

Tested on: human solid tumors (advanced liposarcomas)
Conditions: human patients with advanced liposarcomas; cited from earlier work

Cc1c(C)c2c(c(C)c1O)CCC(C)(COc1ccc(CC3SC(=O)NC3=O)cc1)O2 (stereo not shown) [troglitazone]
in vivo induction of cell differentiation in human solid tumors: in vivo induction of cell differentiation
